{"source": "patent US6649637B2", "about": "“Inhibition of intracellular replication by pyridinylimidazoles” (priority 2001, dated 2003)", "key": {"[1]": {"system": "extracellular T. gondii tachyzoites", "assay": "Incubation of extracellular tachyzoites with drug, wash, then [3H]uracil incorporation in fresh fibroblasts", "format": "cell-based, Toxoplasma gondii", "settings": "10 μM, extracellular tachyzoites incubated 1 hour, washed; at 48 hours"}, "RH T. gondii": {"system": "RH T. gondii", "assay": "Combination with pyrimethamine: [3H]uracil incorporation in RH infected fibroblasts", "format": "cell-based, Toxoplasma gondii", "settings": "pyrimethamine 0.3 μg/ml", "description": "Fibroblasts were infected overnight and then treated with both drugs simultaneously or individually. Incorporated [^3H]methyuracil was measured 48 hours later. Data from one representative experiment is shown.\nPyrimethamine (Sigma) was dissolved in dimethylsulfoxide and added 1 hour after infection alone or in combination with other agents."}, "RH strain T. gondii": {"system": "RH strain T. gondii", "assay": "Stage conversion (tachyzoite to bradyzoite) by flow cytometry, RH strain", "format": "cell-based, Toxoplasma gondii", "description": "Bradyzoites highly express p36 (BSR4), and p21 in cell culture, and downregulate the tachyzoite-specific proteins SAG1 and SAG2 (38, 39). […] The drugs were replaced every 5 days. After 15 days, adherent, infected fibroblasts were recovered and freed intracellular organisms were analyzed by flow cytometry (FIG. 6A).\nTachyzoites were stained with murine monoclonal antibodies specific for tachyzoite protein (SAG-2, provided by Jacqueline Channon, Dartmouth) or bradyzoite-specific antibodies against p21 or p36 (32) followed by fixation with paraformaldehyde. Flow cytometric data were acquired on a FACS Calibur (Becton-Dickinson, Mountain View, Calif.) and analyzed using CellQuest software (Becton-Dickinson) with 5000 or more events evaluated for each condition. Analysis gates were set using appropriate antibody isotype controls, and dead cells were excluded based on light scatter characteristics."}, "T. gondii strain RH": {"system": "T. gondii strain RH", "assay": "Protection of fibroblast monolayers from T. gondii-mediated destruction", "settings": "single dose 10 μM 1 hour after infection, MOI 3; three days after infection"}}, "note": "At least one compound was matched to its structure with a doubt left. Some entries share one result that the patent states for a list of compounds."}
{"smiles": "Oc1ccc(-c2nc(-c3ccc(F)cc3)c(-c3ccncc3)[nH]2)cc1", "note": "[SB202190, 4-(4-fluorophenyl)-2(4-hydroxphenyl)-5-(4 pyridyl)1H-imidazole]", "values": [{"measurement": "reduction of [3H]uracil incorporation", "setting": "[1]", "result": "70 to 90", "unit": "%"}]}
{"smiles": "CCc1nc(N)nc(N)c1-c1ccc(Cl)cc1", "note": "[pyrimethamine]", "values": [{"measurement": "inhibition of tachyzoite replication, single agent", "setting": "RH T. gondii", "result": "does not effectively inhibit"}, {"measurement": "replication under pyrimethamine in stage conversion culture", "setting": "RH strain T. gondii", "result": "almost completely halting replication"}, {"measurement": "p36+ organisms (bradyzoite marker)", "setting": "RH strain T. gondii; RH, 10 μM SB203580 or 1 μg pyrimethamine, 15 days", "result": "significantly lower p36 expression than SB203580"}]}
{"smiles": "COC[C@H]1OC(=O)c2coc3c2[C@@]1(C)C1=C(C3=O)[C@@H]2CCC(=O)[C@@]2(C)C[C@H]1OC(C)=O", "note": "[wortmannin]", "values": [{"measurement": "state of infected fibroblast culture", "setting": "T. gondii strain RH", "result": "essentially destroyed"}]}
